Results are given in words; binding and its absence hold for the method and conditions named. A result given as binding can be weak or reduced; the word gives no strength. Tags and fused reporters may be left off the sequences shown.
B1: His6-tagged WT TRN-SR2 (transportin-SR2) (protein, UniProt Q9Y5L0-2 1-923)
chain: MEGAKPTLQLVYQAVQALYHDPDPSGKERASFWLGELQRSVHAWEISDQLLQIRQDVESCYFAAQTMKMKIQTSFYELPTDSHASLRDSLLTHIQNLKDLSPVIVTQLALAIADLALQMPSWKGCVQTLVEKYSNDVTSLPFLLEILTVLPEEVHSRSLRIGANRRTEIIEDLAFYSSTVVSLLMTCVEKAGTDEKMLMKVFRCLGSWFNLGVLDSNFMANNKLLALLFEVLQQDKTSSNLHEAASDCVCSALYAIENVETNLPLAMQLFQGVLTLETAYHMAVAREDLDKVLNYCRIFTELCETFLEKIVCTPGQGLGDLRTLELLLICAGHPQYEVVEISFNFWYRLGEHLYKTNDEVIHGIFKAYIQRLLHALARHCQLEPDHEGVPEETDDFGEFRMRVSDLVKDLIFLIGSMECFAQLYSTLKEGNPPWEVTEAVLFIMAAIAKSVDPENNPTLVEVLEGVVRLPETVHTAVRYTSIELVGEMSEVVDRNPQFLDPVLGYLMKGLCEKPLASAAAKAIHNICSVCRDHMAQHFNGLLEIARSLDSFLLSPEAAVGLLKGTALVLARLPLDKITECLSELCSVQVMALKKLLSQEPSNGISSDPTVFLDRLAVIFRHTNPIVENGQTHPCQKVIQEIWPVLSETLNKHRADNRIVERCCRCLRFAVRCVGKGSAALLQPLVTQMVNVYHVHQHSCFLYLGSILVDEYGMEEGCRQGLLDMLQALCIPTFQLLEQQNGLQNHPDTVDDLFRLATRFIQRSPVTLLRSQVVIPILQWAIASTTLDHRDANCSVMRFLRDLIHTGVANDHEEDFELRKELIGQVMNQLGQQLVSQLLHTCCFCLPPYTLPDVAEVLWEIMQVDRPTFCRWLENSLKGLPKETTVGAVTVTHKQLTDFHKQVTSAEECKQVCWALRDFTRLFR
B2: GST-tagged WT TRN-SR2 (protein, UniProt Q9Y5L0-2 1-923)
chain: B1 chain

Tests used:
[1] = biological target: GST-tagged HIV-1 integrase (IN) (HIV-1); test: AlphaScreen or HTRF; His6-TRN-SR2 titrated (3-fold dilution series from 1,000 nM) over a fixed 80 nM GST-IN; Ni2+ chelate acceptor and glutathione donor beads; 25 mM Tris pH 7.4, 150 mM NaCl, 1 mM MgCl2, 0.1% Tween 20, 0.1% BSA; 1 h at 4°C, then 1 h at 30°C with beads; both purified
[2] = biological target: N-terminally His6-tagged HIV-1 IN (HIV-1); test: AlphaScreen or HTRF; alternative tags (Fig. S5): GST-TRN-SR2 titrated (3-fold dilution series from 1,000 nM) over a fixed 200 nM His6-IN; Ni2+ chelate acceptor and glutathione donor beads; 25 mM Tris pH 7.4, 150 mM NaCl, 1 mM MgCl2, 0.1% Tween 20, 0.1% BSA; both purified

Binder	binding [1]	binding [2]
B1	binds	
B2		binds
